Values from PubChem BioAssay AID1259282 (Sanger Institute, 2017).
The whole screen tested 794 reagents; this is a random part of them. 11 of all reagents (1.4%) count as active. 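Calls flag knock-downs that lower viability without drug; drug synergy appears only in the synergy scores; exposure time not stated.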 Unmarked entries are inactive. Viability is capped at 1. No sequences are given here. Not given: the amount of reagent, the time to read-out.

- Purpose: 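Kinase knock-downs that work with targeted colorectal cancer drugs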 (primary screen)
- Cell system: DIFI human colorectal cancer cell line
- Reagents: siRNA pool against human genes
- Conditions: anchor drug at a mild dose (BYL719 1 µM, cetuximab 5 µg/ml, trametinib 10 nM) or DMSO vehicle; exposure time not given
- Measured: 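Viability relative to non-targeting pool wells, replicate mean, in DMSO or low-dose BYL719, cetuximab or trametinib; robust z-score without drug; synergy score per drug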
- Scale: robust z-score, knock-down alone: higher = more viable cells than typical knock-down; viability, knock-down alone: higher = more viable cells; synergy score with trametinib and synergy score with cetuximab and synergy score with BYL719: higher = stronger combined killing with drug
- Hit rule: 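Essential when the robust z-score of the knock-down without drug falls below -3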
- Calls: active = essential (knock-down alone, z below -3); inactive = not essential

| target | robust z-score, knock-down alone | viability, knock-down alone (fraction of control) | synergy score with trametinib | synergy score with cetuximab | synergy score with BYL719 |
| --- | --- | --- | --- | --- | --- |
| PTPRU | 0.715 | 1 | 0.186 | 0.063 | 0.01 |
| DLG3 | 0.715 | 1 | 0.0174 | 0.0217 | -0.124 |
| FGFRL1 | 0.636 | 0.989 | 0.299 | 0.121 | 0.0893 |
| PFKFB2 | 0.715 | 1 | 0.129 | 0.0313 | -0.107 |
| PDK3 | 0.715 | 1 | 0.0539 | 0.0316 | -0.189 |
| KMT2B | -1.02 | 0.747 | 0.036 | -0.0531 | -0.0386 |
| BMPR1B | 0.715 | 1 | 0.0447 | -0.0698 | -0.238 |
| IRAK3 | -2.7 | 0.504 | 0.0923 | -0.00712 | 0.0345 |
| CDK9 | 0.715 | 1 | 0.0285 | 0.0266 | -0.255 |
| SBK1 | 0.715 | 1 | -0.189 | -0.219 | -0.255 |
| PEAK1 | -1.81 | 0.633 | 0.0237 | -0.0522 | -0.0255 |
| CMPK1 | 0.314 | 0.942 | 0.0352 | -0.0504 | -0.116 |
| DLG4 | 0.715 | 1 | 0.144 | 0.141 | -0.12 |
| TP53 | -0.647 | 0.802 | 0.231 | 0.167 | 0.0112 |
| PLK2 | 0.47 | 0.964 | 0.0353 | -0.00264 | -0.0424 |
| MPP3 | -1.7 | 0.65 | 0.236 | 0.152 | 0.135 |
| EXOSC10 | 0.0463 | 0.903 | -0.0245 | -0.123 | -0.111 |
| CEP290 | 0.715 | 1 | -0.0615 | 0.00446 | -0.0832 |
| PANK1 | 0.715 | 1 | -0.138 | 0.0261 | -0.0657 |
| ADCK5 | -0.918 | 0.763 | 0.15 | 0.0424 | -0.0137 |
| TSSK3 | 0.65 | 0.991 | -0.0798 | -0.0983 | -0.149 |
| ROR2 | 0.648 | 0.99 | 0.0153 | 0.0993 | -0.173 |
| PI4K2A | 0.715 | 1 | -0.0567 | -0.0859 | -0.118 |
| BTK | -0.508 | 0.822 | -0.0411 | 0.0355 | -0.0926 |
| CHEK1 | -2.94 | 0.47 | -0.172 | -0.0851 | -0.0181 |
| SPEG | 0.715 | 1 | -0.121 | 0.049 | -0.136 |
| ANKK1 | -0.868 | 0.77 | 0.0813 | -0.0146 | -0.049 |
| OXSR1 | 0.715 | 1 | -0.0617 | -0.0659 | -0.14 |
| ACVR1 | 0.715 | 1 | 0.03 | 0.169 | 0.051 |
| DBF4 | 0.715 | 1 | -0.235 | -0.0947 | -0.362 |
| PAK4 | 0.308 | 0.941 | 0.14 | -0.0199 | -0.247 |
| IP6K1 | 0.715 | 1 | 0.0672 | 0.00267 | -0.362 |
| STK33 | -0.436 | 0.833 | 0.0786 | 0.0224 | -0.0492 |
| PHKB | 0.715 | 1 | -0.0642 | -0.0711 | 0.00652 |
| CERK | 0.715 | 1 | -0.079 | 0.0756 | 0.00467 |
| RPS6KB1 | -1.25 | 0.714 | -0.052 | -0.22 | 0.0552 |
| INSR | 0.279 | 0.937 | 0.0948 | -0.0458 | -0.0811 |
| NRAS | 0.715 | 1 | -0.0564 | -0.0109 | -0.315 |
| GRK1 | 0.643 | 0.99 | -0.0161 | -0.0802 | -0.0562 |
| PRKAR2A | 0.715 | 1 | -0.0197 | 0.00503 | -0.213 |
| CDK11A | -0.841 | 0.774 | 0.112 | -0.0296 | -0.225 |
| GNAS | -0.937 | 0.76 | -0.0594 | 0.11 | 0.0474 |
| TP53RK | -0.388 | 0.84 | 0.119 | 0.0118 | 0.0793 |
| PDPK1 | 0.715 | 1 | 0.146 | 0.0986 | 0.0547 |
| MAP3K15 | -0.392 | 0.839 | 0.12 | -0.0202 | -0.0664 |
| MERTK | -0.246 | 0.86 | 0.0353 | -0.117 | -0.236 |
| RIOK3 | -0.628 | 0.805 | 0.106 | 0.0151 | 0.0177 |
| KDR | -1.04 | 0.745 | 0.055 | 0.0258 | -0.151 |
| PRKAB1 | -1.09 | 0.738 | 0.0892 | -0.0962 | -0.098 |
| GSK3A | -0.0781 | 0.885 | 0.225 | 0.15 | 0.0605 |
| INSRR | 0.715 | 1 | 0.203 | -0.0451 | 0.076 |
| CSNK1D | 0.476 | 0.965 | 0.0274 | -0.03 | -0.0989 |
| FLT3 | 0.715 | 1 | -0.0638 | -0.17 | -0.139 |
| PIK3C2B | 0.715 | 1 | 0.252 | 0.15 | 0.0125 |
| DUSP21 | 0.715 | 1 | 0.0142 | -0.024 | -0.14 |
| TSSK1B | -0.249 | 0.86 | 0.0795 | 0.0289 | -0.184 |
| ACVR2A | 0.715 | 1 | -0.0551 | -0.0381 | -0.327 |
| CPNE3 | 0.715 | 1 | 0.0557 | 0.0698 | -0.268 |
| SRPK1 | 0.715 | 1 | 0.16 | 0.154 | -0.0931 |
| SGK2 | 0.539 | 0.974 | 0.0238 | 0.0325 | -0.136 |
| PFKP | 0.715 | 1 | 0.0898 | 0.0288 | -0.0943 |
| RPS6KB2 | 0.715 | 1 | -0.0805 | -0.00592 | -0.00176 |
| HCK | 0.715 | 1 | 0.0968 | 0.113 | -0.0915 |

Looked up above:
Entry for CPNE3 under “synergy score with trametinib”: 0.0557
GRK1, synergy score with trametinib: -0.0161
For “synergy score with trametinib”, DLG4 shows 0.144
